# In the supplement of paper PMC12819154, “High-throughput peptide-centric local stability assay extends protein–ligand identification to membrane proteins, tissues and bacteria” (Nature Structural & Molecular Biology, 2025):
# Chains of the proteins cited; added tags and fusions are not shown. Lines headed by an entry give the natural chain unless they say otherwise; changes in a name come on top.
# UniProt Q14592: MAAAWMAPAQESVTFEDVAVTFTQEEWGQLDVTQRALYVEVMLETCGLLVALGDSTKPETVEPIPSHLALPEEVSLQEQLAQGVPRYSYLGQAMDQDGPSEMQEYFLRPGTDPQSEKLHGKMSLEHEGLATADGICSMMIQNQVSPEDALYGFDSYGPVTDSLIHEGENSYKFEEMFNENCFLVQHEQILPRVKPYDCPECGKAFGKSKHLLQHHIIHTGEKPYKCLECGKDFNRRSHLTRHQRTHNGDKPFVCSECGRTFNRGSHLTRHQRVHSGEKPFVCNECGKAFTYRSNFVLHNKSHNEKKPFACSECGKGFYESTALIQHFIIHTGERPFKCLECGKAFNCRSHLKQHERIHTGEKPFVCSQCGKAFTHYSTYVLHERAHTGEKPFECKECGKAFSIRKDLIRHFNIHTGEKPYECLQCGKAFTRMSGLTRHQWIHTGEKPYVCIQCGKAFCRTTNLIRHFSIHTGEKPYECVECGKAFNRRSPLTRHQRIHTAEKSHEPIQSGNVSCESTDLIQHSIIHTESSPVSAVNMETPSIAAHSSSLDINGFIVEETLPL
# UniProt Q13310, whole entry: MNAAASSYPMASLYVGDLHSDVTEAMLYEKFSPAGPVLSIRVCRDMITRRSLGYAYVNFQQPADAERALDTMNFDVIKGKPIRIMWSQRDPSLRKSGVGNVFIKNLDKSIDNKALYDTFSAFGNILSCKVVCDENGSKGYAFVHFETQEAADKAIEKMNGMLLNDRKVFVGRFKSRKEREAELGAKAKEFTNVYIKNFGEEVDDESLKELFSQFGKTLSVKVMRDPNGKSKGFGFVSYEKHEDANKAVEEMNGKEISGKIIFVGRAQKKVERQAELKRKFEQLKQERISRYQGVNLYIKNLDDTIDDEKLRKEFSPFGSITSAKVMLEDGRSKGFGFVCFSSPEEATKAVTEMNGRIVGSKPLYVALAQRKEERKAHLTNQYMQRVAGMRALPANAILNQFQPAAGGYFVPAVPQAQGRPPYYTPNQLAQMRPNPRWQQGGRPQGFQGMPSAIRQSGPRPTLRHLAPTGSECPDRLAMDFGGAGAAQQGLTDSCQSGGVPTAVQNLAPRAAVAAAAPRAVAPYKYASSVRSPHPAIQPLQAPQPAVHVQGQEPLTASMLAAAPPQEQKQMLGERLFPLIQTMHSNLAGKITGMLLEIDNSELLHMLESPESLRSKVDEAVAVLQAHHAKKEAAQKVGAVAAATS
# UniProt Q14681: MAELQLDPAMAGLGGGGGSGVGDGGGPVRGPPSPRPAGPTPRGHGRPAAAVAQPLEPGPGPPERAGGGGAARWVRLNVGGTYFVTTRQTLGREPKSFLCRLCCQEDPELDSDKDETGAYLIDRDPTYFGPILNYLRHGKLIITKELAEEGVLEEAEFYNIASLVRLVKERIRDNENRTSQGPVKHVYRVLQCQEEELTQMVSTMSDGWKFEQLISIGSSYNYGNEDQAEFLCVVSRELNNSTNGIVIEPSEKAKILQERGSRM
# UniProt Q13547, whole entry: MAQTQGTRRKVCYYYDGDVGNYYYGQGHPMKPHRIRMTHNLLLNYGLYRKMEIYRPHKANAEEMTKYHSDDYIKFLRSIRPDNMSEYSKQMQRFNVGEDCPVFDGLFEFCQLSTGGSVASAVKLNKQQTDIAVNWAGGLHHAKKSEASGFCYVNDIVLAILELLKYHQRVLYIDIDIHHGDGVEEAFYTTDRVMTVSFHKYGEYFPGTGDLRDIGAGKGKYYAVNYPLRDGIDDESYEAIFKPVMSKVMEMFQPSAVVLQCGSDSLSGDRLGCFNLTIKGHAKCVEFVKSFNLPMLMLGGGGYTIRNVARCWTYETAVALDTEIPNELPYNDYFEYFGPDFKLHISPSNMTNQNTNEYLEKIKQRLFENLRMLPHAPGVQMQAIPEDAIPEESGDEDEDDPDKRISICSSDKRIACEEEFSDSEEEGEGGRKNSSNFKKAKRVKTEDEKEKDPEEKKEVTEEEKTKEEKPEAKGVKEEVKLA
# UniProt Q13901: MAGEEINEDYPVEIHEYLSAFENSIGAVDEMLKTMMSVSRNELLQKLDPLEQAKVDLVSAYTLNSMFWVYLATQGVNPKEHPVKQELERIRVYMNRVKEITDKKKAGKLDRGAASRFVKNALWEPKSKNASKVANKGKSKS
# UniProt Q13370: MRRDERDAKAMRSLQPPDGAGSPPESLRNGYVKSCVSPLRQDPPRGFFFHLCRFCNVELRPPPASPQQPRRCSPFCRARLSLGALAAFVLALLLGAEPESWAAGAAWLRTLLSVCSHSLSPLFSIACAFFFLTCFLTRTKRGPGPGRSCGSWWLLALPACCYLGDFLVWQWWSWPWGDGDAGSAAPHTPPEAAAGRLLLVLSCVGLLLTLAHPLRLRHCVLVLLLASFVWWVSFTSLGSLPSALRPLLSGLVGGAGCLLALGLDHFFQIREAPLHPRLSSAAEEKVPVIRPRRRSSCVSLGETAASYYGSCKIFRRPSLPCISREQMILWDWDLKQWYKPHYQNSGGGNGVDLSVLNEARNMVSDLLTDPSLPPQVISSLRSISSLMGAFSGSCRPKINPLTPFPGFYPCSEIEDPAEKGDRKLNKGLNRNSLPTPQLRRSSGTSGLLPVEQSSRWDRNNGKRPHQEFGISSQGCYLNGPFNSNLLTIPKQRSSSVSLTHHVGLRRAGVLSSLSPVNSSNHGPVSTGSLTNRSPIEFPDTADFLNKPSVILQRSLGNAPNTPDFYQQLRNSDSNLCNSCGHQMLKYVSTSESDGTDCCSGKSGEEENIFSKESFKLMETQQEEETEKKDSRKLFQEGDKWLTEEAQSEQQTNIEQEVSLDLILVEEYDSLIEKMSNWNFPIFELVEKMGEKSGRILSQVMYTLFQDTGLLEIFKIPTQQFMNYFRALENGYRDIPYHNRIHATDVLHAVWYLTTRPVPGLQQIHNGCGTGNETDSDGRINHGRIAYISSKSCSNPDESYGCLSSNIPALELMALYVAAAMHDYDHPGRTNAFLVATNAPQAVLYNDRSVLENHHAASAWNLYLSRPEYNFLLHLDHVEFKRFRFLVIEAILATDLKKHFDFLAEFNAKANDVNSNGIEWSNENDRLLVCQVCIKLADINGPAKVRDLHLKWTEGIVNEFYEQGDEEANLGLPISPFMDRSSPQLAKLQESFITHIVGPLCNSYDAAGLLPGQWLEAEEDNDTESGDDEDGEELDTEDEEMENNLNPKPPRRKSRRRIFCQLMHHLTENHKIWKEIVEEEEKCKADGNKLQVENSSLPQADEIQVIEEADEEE
# UniProt Q13464: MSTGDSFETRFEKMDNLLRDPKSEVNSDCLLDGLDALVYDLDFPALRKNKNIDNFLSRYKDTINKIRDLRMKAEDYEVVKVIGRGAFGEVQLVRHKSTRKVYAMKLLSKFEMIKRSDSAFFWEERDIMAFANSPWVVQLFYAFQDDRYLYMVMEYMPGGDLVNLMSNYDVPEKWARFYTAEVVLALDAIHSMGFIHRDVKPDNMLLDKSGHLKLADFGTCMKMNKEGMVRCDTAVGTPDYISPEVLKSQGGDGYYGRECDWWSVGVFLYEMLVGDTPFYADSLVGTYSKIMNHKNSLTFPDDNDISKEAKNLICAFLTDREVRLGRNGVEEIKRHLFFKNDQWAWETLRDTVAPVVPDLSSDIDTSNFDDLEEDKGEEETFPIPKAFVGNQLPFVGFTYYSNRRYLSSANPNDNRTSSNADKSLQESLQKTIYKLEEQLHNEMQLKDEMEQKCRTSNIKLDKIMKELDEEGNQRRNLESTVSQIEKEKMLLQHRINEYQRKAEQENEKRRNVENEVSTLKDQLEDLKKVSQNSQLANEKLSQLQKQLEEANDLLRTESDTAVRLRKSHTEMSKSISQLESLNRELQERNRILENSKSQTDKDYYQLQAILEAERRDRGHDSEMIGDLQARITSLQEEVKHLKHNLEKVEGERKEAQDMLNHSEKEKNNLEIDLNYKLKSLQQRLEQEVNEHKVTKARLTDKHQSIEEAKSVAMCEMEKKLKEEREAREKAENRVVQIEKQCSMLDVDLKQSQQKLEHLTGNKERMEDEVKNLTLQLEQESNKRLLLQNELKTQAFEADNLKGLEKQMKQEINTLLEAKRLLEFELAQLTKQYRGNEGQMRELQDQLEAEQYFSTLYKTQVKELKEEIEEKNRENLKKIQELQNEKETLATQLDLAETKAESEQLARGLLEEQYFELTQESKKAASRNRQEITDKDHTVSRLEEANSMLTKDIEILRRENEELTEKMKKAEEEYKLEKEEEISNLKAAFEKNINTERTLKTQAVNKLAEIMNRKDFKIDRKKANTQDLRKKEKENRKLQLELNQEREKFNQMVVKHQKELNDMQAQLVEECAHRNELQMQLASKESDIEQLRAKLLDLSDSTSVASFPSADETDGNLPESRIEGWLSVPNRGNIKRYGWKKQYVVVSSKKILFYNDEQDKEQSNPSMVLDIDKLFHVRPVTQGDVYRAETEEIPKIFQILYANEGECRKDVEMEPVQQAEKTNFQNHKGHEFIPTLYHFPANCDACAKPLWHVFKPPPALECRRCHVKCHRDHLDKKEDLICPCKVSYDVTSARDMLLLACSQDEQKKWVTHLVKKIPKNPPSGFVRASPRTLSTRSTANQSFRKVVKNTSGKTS
# UniProt Q13247: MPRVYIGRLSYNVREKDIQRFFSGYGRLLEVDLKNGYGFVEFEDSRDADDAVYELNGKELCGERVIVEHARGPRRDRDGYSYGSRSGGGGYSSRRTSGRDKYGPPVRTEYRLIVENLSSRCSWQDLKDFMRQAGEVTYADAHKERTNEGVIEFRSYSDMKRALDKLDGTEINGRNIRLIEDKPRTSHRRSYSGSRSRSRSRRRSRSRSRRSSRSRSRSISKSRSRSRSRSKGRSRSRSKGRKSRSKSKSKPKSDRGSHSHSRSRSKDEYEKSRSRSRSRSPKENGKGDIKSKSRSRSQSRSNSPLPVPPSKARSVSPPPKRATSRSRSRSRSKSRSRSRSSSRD
# UniProt Q15003, whole entry: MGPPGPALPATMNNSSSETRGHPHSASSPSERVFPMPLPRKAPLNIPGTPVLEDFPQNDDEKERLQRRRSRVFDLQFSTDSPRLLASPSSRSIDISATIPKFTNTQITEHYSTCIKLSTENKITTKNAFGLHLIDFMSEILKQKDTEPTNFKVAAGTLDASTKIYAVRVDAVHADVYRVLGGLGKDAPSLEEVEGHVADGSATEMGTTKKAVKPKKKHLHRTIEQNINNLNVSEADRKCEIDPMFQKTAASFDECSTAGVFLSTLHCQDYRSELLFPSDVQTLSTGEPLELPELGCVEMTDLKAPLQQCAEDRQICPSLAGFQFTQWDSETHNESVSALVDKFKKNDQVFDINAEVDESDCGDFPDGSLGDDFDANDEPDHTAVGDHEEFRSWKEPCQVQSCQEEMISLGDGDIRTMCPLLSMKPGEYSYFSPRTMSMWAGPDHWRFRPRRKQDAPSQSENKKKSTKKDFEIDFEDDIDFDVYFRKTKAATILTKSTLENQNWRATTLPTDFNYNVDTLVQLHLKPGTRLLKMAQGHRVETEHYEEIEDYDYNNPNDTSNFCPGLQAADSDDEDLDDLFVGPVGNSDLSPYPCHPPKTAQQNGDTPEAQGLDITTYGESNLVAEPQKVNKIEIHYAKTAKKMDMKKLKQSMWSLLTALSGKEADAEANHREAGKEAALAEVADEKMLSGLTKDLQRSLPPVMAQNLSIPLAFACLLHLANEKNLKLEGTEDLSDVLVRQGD
# UniProt Q14566: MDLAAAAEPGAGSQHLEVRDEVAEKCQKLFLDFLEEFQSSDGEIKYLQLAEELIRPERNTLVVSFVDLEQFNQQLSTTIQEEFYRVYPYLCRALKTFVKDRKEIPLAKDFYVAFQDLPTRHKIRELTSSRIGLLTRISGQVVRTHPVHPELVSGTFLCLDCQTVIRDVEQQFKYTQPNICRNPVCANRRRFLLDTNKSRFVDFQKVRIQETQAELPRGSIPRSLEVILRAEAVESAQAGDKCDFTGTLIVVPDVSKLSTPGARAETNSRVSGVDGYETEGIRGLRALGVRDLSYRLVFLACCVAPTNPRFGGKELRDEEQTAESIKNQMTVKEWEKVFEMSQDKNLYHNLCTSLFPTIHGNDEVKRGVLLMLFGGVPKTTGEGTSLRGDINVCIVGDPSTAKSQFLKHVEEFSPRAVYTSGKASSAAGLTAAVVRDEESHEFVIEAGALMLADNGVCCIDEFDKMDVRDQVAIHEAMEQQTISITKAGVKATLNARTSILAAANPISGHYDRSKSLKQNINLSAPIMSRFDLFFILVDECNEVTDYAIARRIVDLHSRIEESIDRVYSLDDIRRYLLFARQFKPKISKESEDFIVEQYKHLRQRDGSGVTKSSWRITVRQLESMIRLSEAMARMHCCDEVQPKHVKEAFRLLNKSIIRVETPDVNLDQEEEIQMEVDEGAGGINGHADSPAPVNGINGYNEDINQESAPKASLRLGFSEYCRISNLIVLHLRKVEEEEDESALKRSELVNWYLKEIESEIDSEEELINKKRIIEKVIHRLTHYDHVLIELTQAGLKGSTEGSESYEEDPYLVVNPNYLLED
# The other results are listed elsewhere or left out. Small differences around the control level are noise.
# Compound: Cc1nc(Nc2ncc(C(=O)Nc3c(C)cccc3Cl)s2)cc(N2CCN(CCO)CC2)n1 [dasatinib]
# Assay: log2 fold change of tryptic peptide abundance, ligand vs vehicle (limited proteolysis) (log2 ratio); higher = more trypsin-susceptible (destabilized)
# Settings: ligand concentration: 5 uM; sample: K562 cleared lysate
row,Target,log2 fold change
1,"GAMT (peptide sequence: ILGKPVMER, peptide start residue: 36) (UniProt Q14353)",0.0893
2,"UniProt Q14004 (peptide sequence: TKPLTPSIGAK, peptide start residue: 584)",-0.158
3,"ZNF460 (peptide sequence: SNFVLHNK, peptide start residue: 293) (UniProt Q14592)",0.237
4,"UniProt Q13233 (peptide sequence: ATCMPAWKHEWLER, peptide start residue: 191)",-0.381
5,"CALCOCO2 (peptide sequence: QQELMDENFDLSKR, peptide start residue: 300) (UniProt Q13137)",0.496
6,"TRAF3 (peptide sequence: HDQMLSVHDIR, peptide start residue: 388) (UniProt Q13114)",0.504
7,"IK (peptide sequence: ISAIIEKR, peptide start residue: 535) (UniProt Q13123)",0.432
8,"CUL2 (peptide sequence: AVVMLEYVER, peptide start residue: 23) (UniProt Q13617)",-0.341
9,"ESPL1 (peptide sequence: GSSSGLLSPQR, peptide start residue: 237) (UniProt Q14674)",0.658
10,"FAM53B (peptide sequence: YSNGFSTMQR, peptide start residue: 155) (UniProt Q14153)",0.322
11,"DHX34 (peptide sequence: EHQVVVVAGDTGCGK, peptide start residue: 177) (UniProt Q14147)",0.618
12,"PABPC4 (peptide sequence: FSPAGPVLSIR, peptide start residue: 31) (UniProt Q13310)",0.187
13,"KCTD2 (peptide sequence: GHGRPAAAVAQPLEPGPGPPER, peptide start residue: 43) (UniProt Q14681)",-0.0517
14,"THOC5 (peptide sequence: RIQSCVHFMTLK, peptide start residue: 88) (UniProt Q13769)",0.785
15,"HDAC1 (peptide sequence: KEVTEEEKTK, peptide start residue: 457) (UniProt Q13547)",-0.445
16,"PEX6 (peptide sequence: LVFVGANEDR, peptide start residue: 867) (UniProt Q13608)",-0.2
17,"HES1 (peptide sequence: TLILDALKK, peptide start residue: 59) (UniProt Q14469)",-0.206
18,"IKZF1 (peptide sequence: SGLIYLTNHIAPHAR, peptide start residue: 409) (UniProt Q13422)",0.108
19,"SNAPC2 (peptide sequence: VFLQQLK, peptide start residue: 64) (UniProt Q13487)",-0.06

row,Target,log2 fold change
1,"C1D (peptide sequence: LDPLEQAK, peptide start residue: 47) (UniProt Q13901)",-0.0783
2,"AUH (peptide sequence: EFLPQGPVAMR, peptide start residue: 277) (UniProt Q13825)",-0.322
3,"PSME4 (peptide sequence: VMLQHELR, peptide start residue: 944) (UniProt Q14997)",-0.485
4,"PDE3B (peptide sequence: LMETQQEEETEKK, peptide start residue: 616) (UniProt Q13370)",-0.421
5,"BECN1 (peptide sequence: YAQTQLDK, peptide start residue: 256) (UniProt Q14457)",0.553
6,"TUBB3 (peptide sequence: MSMKEVDEQMLAIQSK, peptide start residue: 321) (UniProt Q13509)",0.538
7,"UniProt Q14240 (peptide sequence: DFTVSALHGDMDQKER, peptide start residue: 297)",-0.168
8,"ROCK1 (peptide sequence: TSNIKLDK, peptide start residue: 455) (UniProt Q13464)",0.211
9,"UniProt Q13247 (peptide sequence: QAGEVTYADAHKER, peptide start residue: 132)",-0.122
10,"GTF2H3 (peptide sequence: QALKESQFTLSK, peptide start residue: 25) (UniProt Q13889)",-0.6
11,"PDIA5 (peptide sequence: FHISEFPTLK, peptide start residue: 347) (UniProt Q14554)",0.0664
12,"UBXN2B (peptide sequence: EHGAVPLNEATR, peptide start residue: 94) (UniProt Q14CS0)",0.0561
13,"PDCL (peptide sequence: QRMEEMR, peptide start residue: 143) (UniProt Q13371)",-0.757
14,"MRPL49 (peptide sequence: MHNIPVYK, peptide start residue: 91) (UniProt Q13405)",0.428
15,"ATM (peptide sequence: IAKPNVSASTQASR, peptide start residue: 77) (UniProt Q13315)",-0.296
16,"NCAPH (peptide sequence: EAALAEVADEK, peptide start residue: 675) (UniProt Q15003)",0.131
17,"DCTN1 (peptide sequence: QMEVAQANR, peptide start residue: 575) (UniProt Q14203)",-0.224
18,"MCM6 (peptide sequence: ELRDEEQTAESIK, peptide start residue: 314) (UniProt Q14566)",0.213

# Already shown: an excerpt of the list.
row,Target,log2 fold change
14,"MRPL49 (peptide sequence: MHNIPVYK, peptide start residue: 91) (UniProt Q13405)",0.428
15,"ATM (peptide sequence: IAKPNVSASTQASR, peptide start residue: 77) (UniProt Q13315)",-0.296
16,"NCAPH (peptide sequence: EAALAEVADEK, peptide start residue: 675) (UniProt Q15003)",0.131
